Data: PubChem BioAssay AID624297 (National Center for Advancing Translational Sciences (NCATS), 2012)
Several values for one entry are separate records, joined by “and”; a condition that tells them apart may be missing. Equal values may be shown once. Out of some 340,000 compounds screened, about 6,200 (1.8%) were called active. Inconclusive means that the source gave no clear call. Such entries were picked first, then a sample of the others. The call rests on the fitted dose curve; in most records, active means well fitted activation curve with a large enough effect; inconclusive means small, poorly fitted or top-dose-only effect; inactive means no such curve, though single readings can be large or run the other way. Potencies of inconclusive entries are doubtful fits and often do not repeat.

Experiment: A quantitative high throughput screen for small molecules that induce DNA re-replication in SW480 colon adenocarcinoma cells. Further: nearly all actives have a fitted effect of over 55% in size. On re-replication activation: % of control where 0% means no effect.
Settings: Hoechst DNA content imaging, 48 h; re-replication activation: at 46.1 µM (top of the series)
Method in brief: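 First, 250 cells per well were seeded. Next, compound or vehicle (23 nL) was pinned in, plates sat 48 hr at 37 C. Finally Hoechst was added for 40 min before fluorescence scanning.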
Potency means the concentration at half of the fitted maximal effect.

Row | Structure (SMILES) | Potency | re-replication activation
1 | COc1ccc(C(=O)C2CCCN(C3CSCCSC3)C2)c(OC)c1 (stereo not given) | inconclusive: 8.91 µM [activator, single point] | –
2 | COc1ccc(C=C2C(=O)NC(=S)NC2=O)cc1 | – | inactive: -3.25%
3 | OC(Cc1ccccc1)(c1ccccc1)C1CN2CCC1CC2 (stereo not given) | inconclusive: 29.1 µM [activator, single point] | –
4 | Cc1ccc(Cl)cc1N1CCN(C(=O)c2cn(C)c(=O)c3c2c2ccccc2n3C)CC1 | inconclusive: 20.6 µM [activator, single point] | –
5 | COC(=O)C1=C(c2ccc(OC(F)(F)F)cc2)C[C@@H]2CC[C@H]1N2C(=O)NCc1cc(C)oc1C(F)(F)F | inconclusive: 29.1 µM [activator, single point] | –
6 | O=c1c2ccccc2nc(CN2CCCCCC2)n1-c1ccc(F)cc1 | – | inactive: -8.03%
7 | COC(=O)C1=C(c2ccc(-c3ccccc3)c(F)c2)C[C@@H]2CC[C@H]1N2C(=O)N1CCOCC1 | – | inactive: -4.51%
8 | COc1cc(OC)c(OC)cc1CNCCc1ccc2c(c1)OCO2 | – | inactive: -2.5%
9 | CC(C)(CN)CC(=O)O | inconclusive: 36.6 µM [activator, partial curve, poor fit] | –
10 | Cc1ccc(O)c(C(=O)c2cc(C(=O)NCCC(C)C)c(=O)n(CCC(C)C)c2)c1 | inconclusive: 8.2 µM [activator, partial curve, poor fit] | –
11 | CC(Cc1ccccc1)NCCC(c1ccccc1)c1ccccc1 (stereo not given) | inconclusive: 32.6 µM [activator, partial curve, poor fit] | –
12 | O=Cc1cn(Cc2cccc(F)c2)c2ccccc12 | inconclusive: 4.11 µM [activator, full curve, poor fit] | –
13 | CN1CCN(c2cc(N3CCNCC3)ccc2[N+](=O)[O-])CC1 | inconclusive: 32.6 µM [activator, single point] | –
14 | C[C@]12CC[C@H](O)C[C@H]1CC[C@@H]1[C@@H]2C[C@@H](O)[C@]2(C)[C@@H](C3=CC(=O)OC3)CC[C@]12O | inconclusive: 2.91 µM [activator, full curve] | –
15 | CC/C(=C\C=C\[C@@H]1C=C[C@@H]2CCC[C@H]2[C@@H]1C(=O)c1ccc[nH]1)[C@@H]1O[C@@H]([C@@H](C)C(=O)O)CC[C@@H]1C | inconclusive: 23.1 µM [activator, partial curve, poor fit] | –
16 | FC(F)(F)c1ccccc1CNCCc1c[nH]c2ccccc12 | inconclusive: 20.6 µM [activator, single point] | –
17 | CCC(C)NC(=O)CCC(=O)OC1O[C@H]2OC3(C)CC[C@H]4[C@H](C)CCC(C1C)C24OO3 (stereo not given in full) | active: 18.4 µM | –
18 | O=C(CSC1c2ccccc2-c2ccccc21)N/N=C/c1ccccc1O | inconclusive: 1.16 µM [activator, full curve, poor fit] | –
19 | COC(/C(C)=C/C=C/C(C)=C/c1coc(C)n1)C(C)C1CC(O)C2(C)OC2C=CC(C)C2CC(CC(=O)O2)CC2OC2C(=O)O1 (stereo not given) | inconclusive: 0.0052 µM [activator, full curve, poor fit] | –
20 | COC(=O)C1=C(C(=O)OC)C2OC1c1cc3ccccc3cc12 | active: 13 µM | –
21 | O=C1NC(=O)N(c2ccccc2)C(=O)/C1=C/C=C/c1ccco1 | active: 14.6 µM | –
22 | CCON=O | active: 0.944 µM | –

Reprinted at random: six records from the list, in no set order.
Row | Structure (SMILES) | Potency | re-replication activation
3 | OC(Cc1ccccc1)(c1ccccc1)C1CN2CCC1CC2 (stereo not given) | inconclusive: 29.1 µM [activator, single point] | –
14 | C[C@]12CC[C@H](O)C[C@H]1CC[C@@H]1[C@@H]2C[C@@H](O)[C@]2(C)[C@@H](C3=CC(=O)OC3)CC[C@]12O | inconclusive: 2.91 µM [activator, full curve] | –
13 | CN1CCN(c2cc(N3CCNCC3)ccc2[N+](=O)[O-])CC1 | inconclusive: 32.6 µM [activator, single point] | –
12 | O=Cc1cn(Cc2cccc(F)c2)c2ccccc12 | inconclusive: 4.11 µM [activator, full curve, poor fit] | –
10 | Cc1ccc(O)c(C(=O)c2cc(C(=O)NCCC(C)C)c(=O)n(CCC(C)C)c2)c1 | inconclusive: 8.2 µM [activator, partial curve, poor fit] | –
8 | COc1cc(OC)c(OC)cc1CNCCc1ccc2c(c1)OCO2 | – | inactive: -2.5%

Next part

Row | Structure (SMILES) | Potency | re-replication activation
23 | CC[C@@]1(O)C(=O)OCc2c1cc1n(c2=O)Cc2cc3c(NC(=O)CN)cccc3nc2-1 | inconclusive: 0.116 µM [activator, full curve, poor fit] | –
24 | C[C@]12CC[C@H](O)CC1=CCC1C2CC[C@@]2(C)C1C[C@@H]1CC(=O)O[C@@H]12 (stereo not given in full) | inconclusive: 14.6 µM [activator, single point] | –
25 | COc1ccc(S(=O)(=O)NC(CC(=O)N2CCc3ccccc32)c2ccco2)cc1 (stereo not given) | inconclusive: 20.6 µM [activator, partial curve, poor fit] | –
26 | CN1CCN(/N=C/c2c(O)n(C)c(=O)n(C)c2=O)CC1 | inconclusive: 29.1 µM [activator, single point] | –
27 | CC(C)c1ccccc1OCC(=O)N1CCCN(C)CC1 | inconclusive: 29.1 µM [activator, single point] | –
28 | O=P(O)(O)COc1ccccc1O | active: 4.61 µM | –
29 | C=Cn1ccnc1P(=S)(c1nccn1C=C)c1nccn1C=C | – | inactive: -4.08%
30 | CC(=O)OC1CC[C@@]2(C)C(=CC(=O)C3C4CCC(OC(C)=O)[C@@]4(C)CCC32)C1 (stereo not given in full) | – | inactive: -23%
31 | Cc1ccc2c(c1)C1CN(C)CCC1N2C(=O)c1cn(-c2ccccc2)nc1-c1ccccc1 (stereo not given) | inconclusive: 18.4 µM [activator, single point] | –
32 | CCOC(=O)C(O)(c1ccc(NC(=O)c2ccc(Cl)c(Cl)c2)cc1)C(F)(F)F (stereo not given) | inconclusive: 23.1 µM [activator, single point] | –
33 | COc1cccc(CNCCc2c[nH]c3ccccc23)c1 | inconclusive: 29.1 µM [activator, partial curve, poor fit] | –
34 | CN1CCN(C(=O)COc2ccc(S(=O)(=O)Nc3ccc(F)cc3)cc2)CC1 | inconclusive: 29.1 µM [activator, partial curve, poor fit] | –
35 | CCC(=NCc1ccco1)c1c(O)n(-c2ccccc2C)c(=O)[nH]c1=O | inconclusive: 6.51 µM [activator, single point] | –
36 | ClC1=C(Cl)C(Cl)=C(Cl)C1=C/C=C/c1ccccc1 | inconclusive: 29.1 µM [activator, single point] | –
37 | CC1(C)CC(CCNCc2ccc3c(c2)OCO3)(Cc2ccccc2)CCO1 (stereo not given) | inconclusive: 23.1 µM [activator, partial curve, poor fit] | –
38 | O=C(Nc1ccc(Cl)cc1)Nc1ccc(Cl)c(Cl)c1 | inactive and inconclusive: 32.6 µM [activator, partial curve, poor fit] | –
39 | C=CCn1c(O)c(C(C)=Nc2ccc(C(=O)OCC)cc2)c(=O)[nH]c1=O | – | inactive: -6.01% [at 9.22 µM]
40 | C=C(C)CSc1nnc([C@@H](N)Cc2c[nH]c3ccccc23)o1 | – | inactive: -0.688%
41 | COc1ccc(CNS(=O)(=O)c2cc3c(cc2C)N(C)CCO3)cc1 | inconclusive: 29.1 µM [activator, single point] | –
42 | COC(=O)C(O)(c1ccc(NC(=S)NC(=O)c2ccccc2)cc1)C(F)(F)F (stereo not given) | inconclusive: 29.1 µM [activator, single point] | –
43 | COc1ccc(-n2c(/C=C/c3ccc(O)c(OC)c3)nc3ccccc3c2=O)cc1 | inconclusive: 29.1 µM [activator, single point] | –
44 | CC(CCC(=O)O)C1CCC2C3C(=O)C[C@@H]4CC(=O)CC[C@@]4(C)C3CC(=O)[C@]12C (stereo not given in full) | inconclusive: 0.0007 µM [activator] | –

Row | Structure (SMILES) | Potency | re-replication activation
45 | N#CC[N+]1(CCCNP2(=O)C=C(c3ccccc3)OC(c3ccccc3)=C2)CCOCC1 | inconclusive: 29.1 µM [activator, single point] | –
46 | CC(C)(C)c1cc([N+](=O)[O-])cc(C(C)(C)C)c1O | – | inactive: -13.1%
47 | COCCOc1ccc(C(F)(F)F)cc1NC(=O)CN1C(=O)NC2(CCCc3ccccc32)C1=O (stereo not given) | inconclusive: 29.1 µM [activator, single point] | –
48 | CN1CCC2(CC1)N=C(c1ccc(F)cc1)C(=S)N2 | – | inactive: 0.497%
49 | CC1C(OC(=O)CCC(=O)NC(C)(C)CO)O[C@H]2OC3(C)CC[C@H]4[C@H](C)CCC1C24OO3 (stereo not given in full) | inconclusive: 18.4 µM [activator, partial curve, poor fit] | –
50 | C=CCn1c(O)c(/C=C/C=Nc2ccccc2)c(=O)[nH]c1=O | inconclusive: 8.2 µM [activator, partial curve, poor fit] | –
51 | O=c1[nH]c(=O)n(Cl)c(=O)n1Cl | – | inactive: -0.0755%
52 | O=C(Oc1ccccc1)c1cccc(COC(=O)c2cnccn2)c1 | inconclusive: 25.9 µM [activator, partial curve, poor fit] | –
53 | CN(CC(=O)Nc1ccc(N2CCOCC2)cc1)CC(=O)Nc1cccc(C#N)c1 | inconclusive: 18.4 µM [activator, partial curve, poor fit] | –
54 | CCCCCCCSc1cc(OC)c(CCN(C)C)cc1OC | inconclusive: 23.1 µM [activator, single point] | –
55 | COC(=O)c1ccccc1-n1c(C)nc2ccccc2c1=O | – | inactive: 0.947%
56 | O=c1c2ccccc2c(C=Nc2ccc(O)cc2)c(O)n1Cc1ccccc1 | active: 20.6 µM | –
57 | OC(Cn1cncn1)(Cn1cncn1)c1ccc(F)cc1F | inconclusive: 0.891 µM [activator, single point] | –
58 | COc1ccccc1-n1c(-c2ccc(C)cc2)nc2ccccc2c1=O | inconclusive: 7.31 µM [activator, partial curve] | –
59 | COC(=O)C1=C(c2cc3ccccc3s2)C[C@@H]2CC[C@H]1N2C(=O)NC1CCCCC1 | inconclusive: 20.6 µM [activator, single point] | –
60 | CN1C(CC(=O)c2ccccc2)CCCC1CC(O)c1ccccc1 (stereo not given) | inconclusive: 0.58 µM [activator, full curve, poor fit] | –
61 | NC(=O)CN1CCCC1=O | inconclusive: 0.708 µM [activator, partial curve, poor fit] | –
62 | O=[N+]([O-])OC1CO[C@H]2C(O[N+](=O)[O-])COC12 (stereo not given in full) | – | inactive: -0.837%
63 | CCCNC(=O)N1[C@H]2CC[C@@H]1C(C(=O)OC)=C(c1ccc(-c3ccccc3)c(F)c1)C2 | – | inactive: -16%
64 | CSc1ccc(C(=O)C2CCCN(CCCn3cccn3)C2)cc1 (stereo not given) | inconclusive: 3.26 µM [activator, single point] | –
65 | COC(=O)C1=C(c2ccc(OCc3ccccc3)cc2)C[C@@H]2CC[C@H]1N2C(=O)NC1CCN(Cc2ccccc2)CC1 | inconclusive: 1.03 µM [activator, full curve, poor fit] | –
